Publication PMC11663349
These are yes or no findings as the source states them, for the method shown. In cells and extracts the contact can be indirect. Some binding calls cover weakened binding; strength is not graded here.

Chains of the proteins cited; added tags and fusions are not shown.
UniProt Q8N6T7: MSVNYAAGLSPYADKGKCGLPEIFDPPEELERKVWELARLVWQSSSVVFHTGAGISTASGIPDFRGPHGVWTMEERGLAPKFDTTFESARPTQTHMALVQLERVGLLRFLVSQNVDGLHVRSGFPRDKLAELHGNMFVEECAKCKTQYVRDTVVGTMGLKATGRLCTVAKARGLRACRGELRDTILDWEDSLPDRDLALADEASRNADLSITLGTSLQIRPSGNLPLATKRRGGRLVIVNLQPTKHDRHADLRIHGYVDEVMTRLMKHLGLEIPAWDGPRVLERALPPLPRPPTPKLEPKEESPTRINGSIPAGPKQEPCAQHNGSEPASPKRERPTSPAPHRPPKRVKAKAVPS

Biological target: Sirtuin-6 (SIRT6), endogenous (human (endogenous in T24)) (UniProt Q8N6T7)
Assay: co-IP; endogenous proteins, T24 cell lysate in 200 mM KCl, 20 mM Tris-HCl pH 7.9, 5 mM MgCl2, 10% glycerol, 0.2 mM EDTA, 0.1% NP-40; antibodies or control IgG overnight at 4 °C; western blot; both directions

B1: UHRF1 (Ubiquitin-like, containing PHD and RING Finger domains 1), endogenous in T24 (protein, UniProt Q96T88 1-793)
chain: MWIQVRTMDGRQTHTVDSLSRLTKVEELRRKIQELFHVEPGLQRLFYRGKQMEDGHTLFDYEVRLNDTIQLLVRQSLVLPHSTKERDSELSDTDSGCCLGQSESDKSSTHGEAAAETDSRPADEDMWDETELGLYKVNEYVDARDTNMGAWFEAQVVRVTRKAPSRDEPCSSTSRPALEEDVIYHVKYDDYPENGVVQMNSRDVRARARTIIKWQDLEVGQVVMLNYNPDNPKERGFWYDAEISRKRETRTARELYANVVLGDDSLNDCRIIFVDEVFKIERPGEGSPMVDNPMRRKSGPSCKHCKDDVNRLCRVCACHLCGGRQDPDKQLMCDECDMAFHIYCLDPPLSSVPSEDEWYCPECRNDASEVVLAGERLRESKKKAKMASATSSSQRDWGKGMACVGRTKECTIVPSNHYGPIPGIPVGTMWRFRVQVSESGVHRPHVAGIHGRSNDGAYSLVLAGGYEDDVDHGNFFTYTGSGGRDLSGNKRTAEQSCDQKLTNTNRALALNCFAPINDQEGAEAKDWRSGKPVRVVRNVKGGKNSKYAPAEGNRYDGIYKVVKYWPEKGKSGFLVWRYLLRRDDDEPGPWTKEGKDRIKKLGLTMQYPEGYLEALANREREKENSKREEEEQQEGGFASPRTGKGKWKRKSAGGGPSRAGSPRRTSKKTKVEPYSLTAQQSSLIREDKSNAKLWNEVLASLKDRPASGSPFQLFLSKVEETFQCICCQELVFRPITTVCQHNVCKDCLDRSFRAQVFSCPACRYDLGRSYAMQVNQPLQTVLNQLFPGYGNGR
  binding: binds
